Laboratory results reported in patent US10064928B2, “Peptides and combination of peptides for use in immunotherapy against CLL and other cancers” (IMMATICS BIOTECHNOLOGIES GMBH, priority 2015, dated 2018).
For some assays here: Expression grades refer to the transcript from which the peptide derives; gene names, where given, were looked up from the sequence.

Columns and labels:
[1] = tested on: other tumor types (e.g. non-Hodgkin lymphoma, lung cancer); assay: Presentation of the peptides on additional tumor types (LC-MS, Tables 4A/4B, FIG. 1); set-up: species or system human; details: for Other relevant organs/diseases: Table 4A: additional tumor types where the peptide was over-presented on more than 5% of the measured tumor samples, or presented on more than 5% with ratio of geometric means tumor vs normal tissues larger than 3; for Additional Entities: Table 4B: additional tumour types with over-presentation (including specific presentation) on more than 5% of the measured tumour samples, or presentation on more than 5% with ratio of geometric means tumour vs normal tissues larger than 3, extended normal tissue panel
[2] = tested on: mRNA of source genes in tumors compared to a panel of normal tissues; assay: Expression profiling of source genes by RNAseq (expression scores); set-up: species or system human; key: very highly over-expressed in tumors compared to a panel of normal tissues (+++); highly over-expressed in tumors compared to a panel of normal tissues (++); over-expressed in tumors compared to a panel of normal tissues (+); details: expression score of the source gene, tumors vs panel of normal tissues
[3] = tested on: CLL samples compared to a panel of normal tissues; assay: Identification and label-free relative LC-MS quantitation of HLA-presented peptides (presentation profiles and scores); set-up: species or system human; key: very highly over-presented on tumors compared to a panel of normal tissues (+++); highly over-presented on tumors compared to a panel of normal tissues (++); over-presented on tumors compared to a panel of normal tissues (+); details: presentation score; over-presentation on tumors (CLL samples) compared to a panel of normal tissues

Substance	Other relevant organs/diseases [1]	Gene Expression [2]	Peptide Presentation [3]	Additional Entities [1]
220: peptide found in CXCR5 (gene looked up) (ALPEILFAKV; listed as Homo sapiens) [compound 220]	NHL	++		
193: peptide found in TLR10 (gene looked up) (YLDLSNNRL; listed as Homo sapiens) [compound 193]	NHL	+	+++	
121: peptide found in NUP210 (gene looked up) (RLYEITIEV; listed as Homo sapiens) [compound 121]	SCLC, NHL, AML, BRCA, OC	++	++	
98: peptide found in CD37 (gene looked up) (SLIKYFLFV; listed as Homo sapiens) [compound 98]	NHL	+++	+++	
294: peptide found in NCOA3 (gene looked up) (ALLDQLHTLL; listed as Homo sapiens) [compound 294]	NHL	+	+	AML
117: peptide found in NUP210 (gene looked up) (LLILENILL; listed as Homo sapiens) [compound 117]	NHL, AML, Melanoma	++	++	
330: peptide found in BTK (gene looked up) (VLMWEIYSL; listed as Homo sapiens) [compound 330]	NHL	++	++	
96: peptide found in CD37 (gene looked up) (ILIDKTSFV; listed as Homo sapiens) [compound 96]	NHL	+++	+	
120: peptide found in NUP210 (gene looked up) (AIDAALTSV; listed as Homo sapiens) [compound 120]	NHL, AML	++		
5: peptide found in MAP3K1 (gene looked up) (ALIFKIASA; listed as Homo sapiens) [compound 5]	AML, BRCA	+++	+++	Uterine Cancer
149: peptide found in LYN (gene looked up) (SLDNGGYYI; listed as Homo sapiens) [compound 149]	NHL	+++	+++	
195: peptide found in SYK (gene looked up) (YLGGFALSV; listed as Homo sapiens) [compound 195]	NHL, AML	++	+++	
337: peptide found in IKZF3 (gene looked up) (YMYEKESEL; listed as Homo sapiens) [compound 337]	NHL	+++	++	
308: peptide found in PLCG2 (gene looked up) (SLYDVSRMYV; listed as Homo sapiens) [compound 308]	NHL	+	+++	
31: peptide found in PARP15 (gene looked up) (ELMHGVAGV; listed as Homo sapiens) [compound 31]		+++	++	
300: peptide found in NUP210 (gene looked up) (ILLNPAYDVYL; listed as Homo sapiens) [compound 300]	NHL, Melanoma	++	++	
307: peptide found in PLCG2 (gene looked up) (LLLTKPTEA; listed as Homo sapiens) [compound 307]	NHL	++	++	
97: peptide found in CD37 (gene looked up) (LLFATQITL; listed as Homo sapiens) [compound 97]	NHL	+++	+	
119: peptide found in NUP210 (gene looked up) (VLPAEFFEV; listed as Homo sapiens) [compound 119]	NHL, AML, Urinary bladder cancer, Uterine Cancer	++	+++	SCLC
221: peptide found in ORAI2 (gene looked up) (ALVSTIIMV; listed as Homo sapiens) [compound 221]	NHL, AML	+	+	Brain Cancer

Substance	Other relevant organs/diseases [1]	Gene Expression [2]	Peptide Presentation [3]	Additional Entities [1]
118: peptide found in NUP210 (gene looked up) (RLLILENILL; listed as Homo sapiens) [compound 118]	NHL	++	+++	HNSCC
146: peptide found in SMCHD1 (gene looked up) (SIIEGPIIKL; listed as Homo sapiens) [compound 146]	NHL, Urinary bladder cancer	+++	+++	HNSCC
177: peptide found in PASK (gene looked up) (VLDDRELLL; listed as Homo sapiens) [compound 177]	NHL	++	+++	
309: peptide found in PLCG2 (gene looked up) (ILYGTQFVL; listed as Homo sapiens) [compound 309]	NHL	++	+	
257: peptide found in HVCN1 (gene looked up) (RIINGIIISV; listed as Homo sapiens) [compound 257]	NHL	+++		AML
251: peptide found in SP140 (gene looked up) (LLYDNVPGA; listed as Homo sapiens) [compound 251]	NHL	+++	+	
106: peptide found in ATM (gene looked up) (FMASHLDYL; listed as Homo sapiens) [compound 106]		+	+++	
301: peptide found in NUP210 (gene looked up) (AASPIITLV; listed as Homo sapiens) [compound 301]		+		
312: peptide found in MYO1G (gene looked up) (LLYNSTDPTL; listed as Homo sapiens) [compound 312]	NHL	+	+++	Urinary Bladder Cancer
107: peptide found in ATM (gene looked up) (ILYNLYDLL; listed as Homo sapiens) [compound 107]		++	++	Melanoma
91: peptide found in PLCG2 (gene looked up) (ILDLNTYNV; listed as Homo sapiens) [compound 91]	NHL	+		AML
75: peptide found in TLR9 (gene looked up) (GLSIFAQDLRL; listed as Homo sapiens) [compound 75]	NHL	++		
108: peptide found in ATM (gene looked up) (VIYTLIHYI; listed as Homo sapiens) [compound 108]		+	+	BRCA, Melanoma
105: peptide found in ATM (gene looked up) (KLMNDIADI; listed as Homo sapiens) [compound 105]	NHL	++	+++	
138 (NLLDIDAPVTV; listed as Homo sapiens) [compound 138]	SCLC, NHL		++	Uterine Cancer, AML
242 (ILLGIQELL; listed as Homo sapiens) [compound 242]	NHL, AML		++	BRCA
79 (GLQAKIQEA; listed as Homo sapiens) [compound 79]	NHL, Esophageal Cancer, Uterine Cancer		+++	
383 (YLLREWVNL; listed as Homo sapiens) [compound 383]	HCC, NHL		+++	Melanoma, Uterine Cancer
349 (ALATHILSL; listed as Homo sapiens) [compound 349]	NHL, Urinary bladder cancer		++	HCC, Melanoma
